According to PubChem BioAssay AID248 (DTP/NCI, 2004):
The list shows only some results of the screen, not a fair sample: it gathers tests that were run many times, whatever their T/C, doses with no T/C, and many T/C values between a quarter and a half above the control. Other doses and runs of a compound stand elsewhere. T/C is the treated group as % of the vehicle group. Some entries give survivors of the animals treated and no T/C: the source holds a T/C of zero for them, seemingly a mark for toxic or unscored doses. Some doses without a T/C left all or most animals alive at the check, yet need not have been tolerated: the source hardly ever lists a survival T/C far under the control, and the zero likely stands for such cases as well. Survivors were counted at the toxicity check, usually on the fifth day, unless a day is given; later deaths do not show. Schedules are NCI's codes, read here as Q, the interval in days (D) or hours (H), X, the number of doses. Some schedule codes hold Z or #, which are not explained here. Some entries were tested several times; their values stand side by side, smallest first. Where survival is the endpoint, the PubChem record calls one and a half times the control and up active, and a quarter to a half above the control has no call in these data; cut-offs in other NCI protocols can differ.

Test system: L1210 leukemia ip in BDF1 mice, survival T/C
Assay: NCI In Vivo Anticancer Drug Screen. Data for tumor model L1210 Leukemia (intraperitoneal) in B6D2F1 (BDF1) mice
Conditions: T/C endpoint: mean survival time, higher T/C = longer survival

CC[C@@]1(O)C(=O)OCc2c1cc1n(c2=O)Cc2cc3ccccc3nc2-1
T/C (dose: 0.25 mg/kg/injection, schedule: Q01DX010 (ip), vehicle: saline): 146 % of control
T/C (dose: 0.25 mg/kg/injection, schedule: Q01DX Z (ip), vehicle: carboxymethylcellulose (CMC)): 127 % of control
T/C (dose: 0.4 mg/kg/injection, schedule: Q01DX Z (ip), vehicle: saline): 135 % of control
T/C (dose: 0.5 mg/kg/injection, schedule: Q01DX010 (ip), vehicle: saline): 148 % of control
T/C (dose: 0.5 mg/kg/injection, schedule: Q01DX010 (oral), vehicle: saline): 140 % of control
T/C (dose: 0.5 mg/kg/injection, schedule: Q01DX Z (im), vehicle: saline): 125 % of control
T/C (dose: 0.5 mg/kg/injection, schedule: Q01DX Z (ip), vehicle: saline): 136 % of control
T/C (dose: 0.5 mg/kg/injection, schedule: Q## X Z (ip), vehicle: saline): 125 % of control
T/C (dose: 0.5 mg/kg/injection, schedule: Q#A X Z (ip), vehicle: saline): 148 % of control
T/C (dose: 0.63 mg/kg/injection, schedule: Q04DX003 (ip), vehicle: Klucel (hydroxypropylcellulose) (HPC)): 138 % of control
T/C (dose: 0.75 mg/kg/injection, schedule: Q01DX Z (ip), vehicle: carboxymethylcellulose (CMC)): 136 % of control
T/C (dose: 0.75 mg/kg/injection, schedule: Q03DX Z (ip), vehicle: saline): 129 % of control
T/C (dose: 0.8 mg/kg/injection, schedule: Q01DX Z (ip), vehicle: saline): 146 % of control
T/C (dose: 1.0 mg/kg/injection, schedule: Q01DX010 (oral), vehicle: saline): 142 % of control
T/C (dose: 1.0 mg/kg/injection, schedule: Q01DX Z (im), vehicle: saline): 125 % of control
T/C (dose: 1.0 mg/kg/injection, schedule: Q01DX Z (oral), vehicle: saline): 146 % of control
T/C (dose: 1.0 mg/kg/injection, schedule: Q01DX Z (sc), vehicle: saline): 142 % of control
T/C (dose: 1.0 mg/kg/injection, schedule: Q## X Z (ip), vehicle: saline): 132 % of control
T/C (dose: 1.0 mg/kg/injection, schedule: Q#A X Z (ip), vehicle: saline): 126 % of control
T/C (dose: 1.25 mg/kg/injection, schedule: Q01DX001 (ip), vehicle: saline): 126 % of control
T/C (dose: 2.0 mg/kg/injection, schedule: Q01DX006 (iv), vehicle: saline): 131 % of control
T/C (dose: 2.0 mg/kg/injection, schedule: Q01DX010 (iv), vehicle: saline): 129 % of control
T/C (dose: 2.0 mg/kg/injection, schedule: Q01DX010 (oral), vehicle: saline): 125 % of control
T/C (dose: 2.0 mg/kg/injection, schedule: Q01DX Z (oral), vehicle: saline): 146 % of control
survivor count (dose: 2.25 mg/kg/injection, schedule: Q#A X Z (ip), vehicle: saline): 6 of 6
T/C (dose: 3.0 mg/kg/injection, schedule: Q01DX Z (im), vehicle: saline): 126 % of control
T/C (dose: 3.0 mg/kg/injection, schedule: Q01DX Z (sc), vehicle: saline): 126 % of control
T/C (dose: 3.2 mg/kg/injection, schedule: Q01DX Z (ip), vehicle: saline): 147 % of control
survivor count (dose: 3.35 mg/kg/injection, schedule: Q#A X Z (ip), vehicle: saline): 5 of 6 and 6 of 6
survivor count (dose: 4.0 mg/kg/injection, schedule: Q01DX010 (ip), vehicle: saline): 6 of 6
survivor count (dose: 4.0 mg/kg/injection, schedule: Q01DX010 (oral), vehicle: saline): 5 of 6
survivor count (dose: 4.0 mg/kg/injection, schedule: Q01DX Z (oral), vehicle: saline): 6 of 6
T/C (dose: 4.0 mg/kg/injection, schedule: Q07DX Z (ip), vehicle: saline): 129 % of control
survivor count (dose: 5.0 mg/kg/injection, schedule: Q01DX001 (ip), vehicle: saline): 5 of 6
survivor count (dose: 5.0 mg/kg/injection, schedule: Q01DX Z (ip), vehicle: carboxymethylcellulose (CMC)): 3 of 6
T/C (dose: 6.0 mg/kg/injection, schedule: Q03DX Z (ip), vehicle: saline): 149 % of control
T/C (dose: 6.5 mg/kg/injection, schedule: Q01DX006 (iv), vehicle: saline): 126 % of control
survivor count (dose: 6.5 mg/kg/injection, schedule: Q01DX Z (im), vehicle: saline): 6 of 6
survivor count (dose: 6.5 mg/kg/injection, schedule: Q01DX Z (sc), vehicle: saline): 6 of 6
survivor count (dose: 7.2 mg/kg/injection, schedule: Q01DX Z (ip), vehicle: saline): 6 of 6
survivor count (dose: 8.0 mg/kg/injection, schedule: Q01DX010 (ip), vehicle: saline): 1 of 6
survivor count (dose: 8.0 mg/kg/injection, schedule: Q01DX010 (iv), vehicle: saline): 6 of 6
survivor count (dose: 8.0 mg/kg/injection, schedule: Q01DX010 (oral), vehicle: saline): 2 of 6
survivor count (dose: 8.0 mg/kg/injection, schedule: Q01DX Z (oral), vehicle: saline): 6 of 6
T/C (dose: 8.0 mg/kg/injection, schedule: Q07DX Z (ip), vehicle: saline): 141 % of control
survivor count (dose: 9.0 mg/kg/injection, schedule: Q01DX Z (ip), vehicle: saline): 6 of 6
survivor count (dose: 9.5 mg/kg/injection, schedule: Q01DX Z (im), vehicle: saline): 6 of 6
survivor count (dose: 9.5 mg/kg/injection, schedule: Q01DX Z (sc), vehicle: saline): 5 of 6
survivor count (dose: 10.0 mg/kg/injection, schedule: Q01DX001 (ip), vehicle: saline): 4 of 6
survivor count (dose: 10.0 mg/kg/injection, schedule: Q01DX Z (ip), vehicle: carboxymethylcellulose (CMC)): 2 of 6
survivor count (dose: 10.0 mg/kg/injection, schedule: Q01DX Z (ip), vehicle: saline): 4 of 6
survivor count (dose: 13.0 mg/kg/injection, schedule: Q01DX Z (ip), vehicle: saline): 5 of 6
survivor count (dose: 14.5 mg/kg/injection, schedule: Q01DX Z (im), vehicle: saline): 5 of 6
survivor count (dose: 14.5 mg/kg/injection, schedule: Q01DX Z (sc), vehicle: saline): 4 of 6
T/C (dose: 16.0 mg/kg/injection, schedule: Q01DX001 (ip), vehicle: saline): 129 and 140 % of control
survivor count (dose: 16.0 mg/kg/injection, schedule: Q01DX010 (ip), vehicle: saline): 1 of 6
survivor count (dose: 16.0 mg/kg/injection, schedule: Q01DX010 (iv), vehicle: saline): 4 of 6
survivor count (dose: 16.0 mg/kg/injection, schedule: Q01DX Z (oral), vehicle: saline): 6 of 6
survivor count (dose: 20.0 mg/kg/injection, schedule: Q01DX001 (ip), vehicle: saline): 1 of 6
survivor count (dose: 22.0 mg/kg/injection, schedule: Q01DX006 (iv), vehicle: saline): 6 of 6
survivor count (dose: 22.0 mg/kg/injection, schedule: Q01DX Z (im), vehicle: saline): 2 of 6
survivor count (dose: 22.0 mg/kg/injection, schedule: Q01DX Z (sc), vehicle: saline): 6 of 6
survivor count (dose: 25.0 mg/kg/injection, schedule: Q01DX Z (ip), vehicle: carboxymethylcellulose (CMC)): 0 of 6
survivor count (dose: 32.01 mg/kg/injection, schedule: Q01DX010 (iv), vehicle: saline): 4 of 6
survivor count (dose: 35.0 mg/kg/injection, schedule: Q07DX Z (ip), vehicle: saline): 3 of 6
T/C (dose: 50.0 mg/kg/injection, schedule: Q01DX001 (ip), vehicle: saline): 130 % of control
survivor count (dose: 50.0 mg/kg/injection, schedule: Q01DX Z (ip), vehicle: carboxymethylcellulose (CMC)): 0 of 6
survivor count (dose: 100.0 mg/kg/injection, schedule: Q01DX Z (ip), vehicle: carboxymethylcellulose (CMC)): 0 of 6
survivor count (dose: 245.0 mg/kg/injection, schedule: Q01DX001 (ip), vehicle: saline): 6 of 6
survivor count (dose: 370.0 mg/kg/injection, schedule: Q01DX001 (ip), vehicle: saline): 6 of 6
survivor count (dose: 550.0 mg/kg/injection, schedule: Q01DX001 (ip), vehicle: saline): 6 of 6
T/C (dose: 1000.0 micrograms/kg/injection, schedule: Q01DX Z (ip), vehicle: saline): 127 % of control
